Data taken from patent publication US20140073518A1.
Results are given in words; binding and its absence hold for the method and conditions named. Some entries that bind do so weakly or less than the wild type.

Amino acid sequences for entries named in this document (tags omitted). A change or cut given only in a name is not applied to a line headed by its entry. Residues count along the entry.
UniProt P08581, residues 25-932: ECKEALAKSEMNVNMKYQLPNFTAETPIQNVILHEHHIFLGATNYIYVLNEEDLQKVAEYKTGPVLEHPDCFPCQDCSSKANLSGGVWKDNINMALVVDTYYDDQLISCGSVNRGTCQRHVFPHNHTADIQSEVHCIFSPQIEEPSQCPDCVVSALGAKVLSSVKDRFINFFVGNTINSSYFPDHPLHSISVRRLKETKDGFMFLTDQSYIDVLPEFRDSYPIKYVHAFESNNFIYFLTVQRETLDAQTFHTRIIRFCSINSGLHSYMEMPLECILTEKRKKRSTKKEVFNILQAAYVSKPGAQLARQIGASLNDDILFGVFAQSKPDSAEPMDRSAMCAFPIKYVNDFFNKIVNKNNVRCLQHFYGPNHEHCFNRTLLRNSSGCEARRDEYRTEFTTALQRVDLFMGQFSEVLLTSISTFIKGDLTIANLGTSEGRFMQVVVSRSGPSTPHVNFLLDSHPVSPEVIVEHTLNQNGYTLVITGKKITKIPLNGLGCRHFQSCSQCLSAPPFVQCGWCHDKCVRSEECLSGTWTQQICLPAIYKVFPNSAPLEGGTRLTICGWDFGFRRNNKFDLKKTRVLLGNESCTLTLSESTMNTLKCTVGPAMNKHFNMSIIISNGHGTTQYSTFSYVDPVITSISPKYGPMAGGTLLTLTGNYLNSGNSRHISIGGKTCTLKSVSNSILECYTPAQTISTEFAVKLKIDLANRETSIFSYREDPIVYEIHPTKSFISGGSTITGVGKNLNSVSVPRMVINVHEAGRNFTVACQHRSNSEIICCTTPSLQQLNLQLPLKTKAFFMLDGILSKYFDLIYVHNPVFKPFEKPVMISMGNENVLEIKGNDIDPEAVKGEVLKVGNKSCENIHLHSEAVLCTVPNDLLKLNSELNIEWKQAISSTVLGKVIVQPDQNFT
UniProt P14210: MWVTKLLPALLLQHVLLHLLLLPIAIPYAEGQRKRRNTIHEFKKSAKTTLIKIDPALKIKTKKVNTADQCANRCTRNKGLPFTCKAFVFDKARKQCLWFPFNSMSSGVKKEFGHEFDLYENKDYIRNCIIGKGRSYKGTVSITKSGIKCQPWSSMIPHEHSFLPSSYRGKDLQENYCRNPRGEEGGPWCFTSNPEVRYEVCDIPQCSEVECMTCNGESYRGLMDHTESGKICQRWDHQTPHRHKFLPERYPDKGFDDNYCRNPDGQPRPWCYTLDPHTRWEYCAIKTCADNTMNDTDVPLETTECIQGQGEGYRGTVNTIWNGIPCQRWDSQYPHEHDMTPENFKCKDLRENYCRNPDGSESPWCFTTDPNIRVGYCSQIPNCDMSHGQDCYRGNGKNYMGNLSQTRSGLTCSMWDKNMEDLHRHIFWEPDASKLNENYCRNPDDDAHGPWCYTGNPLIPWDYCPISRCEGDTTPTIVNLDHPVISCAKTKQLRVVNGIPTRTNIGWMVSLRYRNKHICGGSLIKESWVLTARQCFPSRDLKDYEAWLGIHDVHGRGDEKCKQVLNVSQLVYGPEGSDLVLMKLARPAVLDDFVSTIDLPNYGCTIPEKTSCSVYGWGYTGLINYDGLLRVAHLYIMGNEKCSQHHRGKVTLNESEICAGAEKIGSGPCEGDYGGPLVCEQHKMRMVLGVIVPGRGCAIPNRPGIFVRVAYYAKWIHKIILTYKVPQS

Legend:
soluble Met receptor [1] = molecular target: soluble Met receptor (UniProt P08581); experiment: yeast surface display, 0.5 nM and 5 nM soluble Met
soluble Met receptor [2] = molecular target: soluble Met receptor (UniProt P08581); experiment: yeast surface display of the binder, soluble Met at 0.5 nM and 5 nM, flow cytometry

binding (soluble Met receptor [1]): binds
binding (soluble Met receptor [2]): binds
Substance: Aras4 (engineered NK1 fragment of HGF) (from UniProt P14210 28-210) (ligand)
